AC50 data for 57 molecules are collected here from PubChem BioAssay AID1487 (National Center for Advancing Translational Sciences (NCATS), 2009).

Structures are written as SMILES. The list shows a part of the results. The main result of the screen is listed elsewhere. These columns were measured beside it and carry no call. The list favours compounds with an active or inconclusive main result. Words in brackets tell the shape of the fitted curve; partial curves, single points and poor fits give uncertain potencies.

The assay can be described thus: qHTS Assay for Modulators of Lamin A Splicing. The conditions noted are these: HeLa LMNA splicing GFP/RFP minigene ratio, 48 h. In short, it runs like this:
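Read-out is the ratio of GFP to DsRed2 object intensity, acquired by 488 nm laser-scanning cytometry on HeLa lamin A-EGFP minigene reporter cells. Compound incubation 48 hrs at 37 °C in Opti-MEM with 2% FBS; DMSO 0.5% final.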

Where [1] appears, read: measured here: RFP viability control channel.
[2] abbreviates: measured here: GFP splicing reporter channel.

Regarding `Cn1ncc2c(NNC(=O)Cc3ccccc3)ncnc21`, under setting [1], the AC50 was 0.0891 µM [falling, full curve, poor fit].

`Cc1nc(N2CCOCC2)c2cc(-c3ccccc3)sc2n1`: under setting [1], the AC50 was 35.5 µM [rising, single point].

As to `CCOC(=O)C(NC(C)=O)C(=O)Nc1ccc(C(C)C)cc1` (stereo unspecified), the concentration at half-maximal activity (AC50) under setting [2] was 12.6 µM [falling, partial curve] and the concentration at half-maximal activity (AC50) under setting [1] is 8.91 µM [falling, partial curve].

On to `O=C(NCCO)c1ccc(Cl)c(Cl)c1`, for which the AC50 under setting [2] is 25.1 µM [rising, single point].

On to `CN1c2ccccc2-c2nc3ccccc3n2C1c1cccs1` (stereo unspecified), for which the AC50 under setting [2] was 0.141 µM [falling, full curve, poor fit].

In the case of `Cc1ccc(C2Oc3ccccc3C3=C2C(c2cccs2)n2ncnc2N3)cc1` (stereo unspecified), the AC50 under setting [2] is 3.55 µM [falling, partial curve] and the AC50 under setting [1] was 3.55 µM [falling, partial curve, poor fit].

`COc1ccc(Cn2ccnc2SCC(=O)NC2CCCC2)cc1`: the AC50 under setting [2] is 2.82 µM [rising, partial curve, poor fit].

As for `COCCCNC(=O)c1ccc(Cn2c(=O)[nH]c3ccccc3c2=O)cc1`, under setting [1], the AC50 was 14.1 µM [rising, partial curve].

For the molecule `O=C(O)CC(C(=O)NCc1ccccc1)C1CCCO1` (stereo unspecified), the AC50 under setting [1] was 0.178 µM [falling, full curve, poor fit].

Turning to `Cc1ccccc1N1C(=O)c2ccccc2N2C(=O)c3ccccc3C12` (stereo unspecified), the AC50 under setting [2] was 15.8 µM [rising, single point] and the AC50 under setting [1] is 20 µM [rising, single point].

Take `CCOC(=O)c1c(C)oc2c1c(C=NCc1ccccn1)c(O)c1ccccc12`: under setting [2], the AC50 was 35.5 µM [falling, single point].

`COc1ccc(C(=O)C(C)OC(=O)c2cccc(S(=O)(=O)Nc3cc(Cl)c(OC)cc3OC)c2)cc1` (stereo unspecified): the concentration at half-maximal activity (AC50) was 3.98 µM [rising, full curve, poor fit] under setting [2] and 10 µM [rising, partial curve] under setting [1].

In the case of `Cc1noc(C)c1CSc1ncnc2ccccc12`, the half-maximal activity concentration (AC50) under setting [2] is 15.8 µM [falling, single point].

Turning to `COc1ccc2c(c1)CC(C(=O)Nc1cccc(C)c1C)CO2` (stereo unspecified), the AC50 under setting [1] was 0.282 µM [rising, full curve, poor fit].

As for `CCCc1nc2scc(-c3ccc(C)cc3)c2c(=O)n1N`, the AC50 under setting [1] is 35.5 µM [rising, single point].

`O=C(O)CCCCCNS(=O)(=O)c1cccc2c1C(=O)c1ccccc1C2=O`: under setting [1], the AC50 is 35.5 µM [rising, single point].

Turning to `C=CCn1c(SCC(=O)Nc2cccnc2Cl)nnc1-c1ccccc1F`, the half-maximal activity concentration (AC50) by setting is: under setting [2], 11.2 µM [rising, single point]; under setting [1], 15.8 µM [rising, single point].

With `N#CC(Cc1ccc(OC(F)F)cc1)c1nc2ccccc2[nH]1` (stereo unspecified), the AC50 under setting [1] is 0.501 µM [rising, full curve].

Take `CSc1ccc(CCNC(=O)c2ccc3c(c2)nc2n3CCCCC2)cc1`: the concentration at half-maximal activity (AC50) under setting [1] is 2.51 µM [falling, full curve, poor fit].

As for `C=CCNC(=S)NNC(=O)c1cc(O)ccc1O`, the AC50 under setting [1] is 0.00316 µM [falling, full curve, poor fit].

For `COc1cc(/C=C(/C(=O)c2cccs2)c2nc3ccccc3[nH]2)cc(OC)c1O`, the AC50 under setting [2] was 3.16 µM [falling, single point] and the AC50 under setting [1] is 31.6 µM [rising, single point].

As for `COc1ccccc1N1CCN(C(=O)CCc2ccc(S(=O)(=O)NCC(C)C)cc2)CC1`, the half-maximal activity concentration (AC50) was 10 µM [rising, partial curve] under setting [2] and 17.8 µM [rising, single point] under setting [1].

Turning to `O=c1c(=O)n(-c2ccccc2)ccn1Cc1cccc(C(F)(F)F)c1`, the AC50 was 3.55 µM [rising, full curve, poor fit] under setting [2] and 1.78 µM [rising, full curve] under setting [1].

With `Cc1cc(/C=C(\C#N)C(=O)Nc2ccccc2)c(C)n1-c1ccc2c(c1)OCO2`, the AC50 under setting [1] is 5.62 µM [rising, full curve].

For `O=C(Nc1ccccc1C(F)(F)F)c1ccc(CN2CCC(Cc3ccccc3)CC2)cc1`, the AC50 is 11.2 µM [falling, single point] under setting [2] and 7.94 µM [falling, single point] under setting [1].

On to `c1ccc(C2CCCN(Cc3nc(CC4CC4)no3)CC2)cc1` (stereo unspecified), for which the AC50 under setting [1] is 35.5 µM [falling, single point].

In the case of `CCN(CC)c1ccc(/C=N/NC(=O)c2cccc(S(=O)(=O)Nc3ccccc3OC)c2)c(O)c1`, the concentration at half-maximal activity (AC50) was 8.91 µM [rising, partial curve, poor fit] under setting [2] and 7.94 µM [rising, partial curve] under setting [1].

Regarding `O=c1c(Cc2ccc(Cl)cc2)c(O)ccn1Cc1ccccc1`, the AC50 under setting [1] was 17.8 µM [rising, partial curve, poor fit].

In the case of `O=C(CCN1C(=O)S/C(=C\c2cccs2)C1=O)NC1=NCCS1`, the AC50 under setting [2] was 35.5 µM [rising, single point].

For `O=C(c1ccccc1-c1ccccc1)N1CCN(c2ccccn2)CC1`, the AC50 under setting [1] was 3.55 µM [rising, partial curve, poor fit].

Turning to `O=C(/C=C\c1ccc(-c2ccccc2)o1)c1ccccc1`, the AC50 is, setting by setting: under setting [2], 12.6 µM [falling, partial curve]; under setting [1], 14.1 µM [falling, single point].

In the case of `Cc1ccccc1NS(=O)(=O)c1cc(C(=O)Nc2ccccc2-c2ccccc2)ccc1Cl`, under setting [1], the AC50 is 35.5 µM [rising, single point].

With `CCOC(=O)c1c(C)[nH]c(C(=O)COC(=O)C2CC(=O)N(Cc3ccccc3)C2)c1C` (stereo unspecified), the AC50 under setting [1] was 12.6 µM [falling, partial curve, poor fit].

With `OCC1OC(O)C(O)C(O)C1O` (stereo unspecified), the concentration at half-maximal activity (AC50) under setting [2] was 0.00355 µM [falling, full curve, poor fit].

With `O=C(CSc1nc2ccccc2o1)Nc1nc(-c2ccccc2)c(-c2ccccc2)s1`, the AC50 under setting [1] was 22.4 µM [rising, single point].

As for `CSc1nc(Nc2ccc(C)cc2)c(C#N)c(-c2ccccc2)n1`, the AC50 under setting [2] was 2 µM [falling, full curve, poor fit].

Turning to `c1ccc(COc2ccc(OCCCN3CCCC3)cc2)cc1`, the AC50 under setting [2] is 20 µM [rising, partial curve, poor fit].

On to `O=C(CSc1ccc(-c2ccccn2)nn1)Nc1nccs1`, for which the AC50 under setting [1] is 1.12 µM [falling, full curve, poor fit].

With `CCOc1ccc(C(=O)N2CCC(C(=O)c3ccc4c(c3)OCCO4)CC2)cc1`, the AC50 under setting [1] was 15.8 µM [rising, single point].

In the case of `Cc1ccc(/C=C2/SC(=O)N(CC(=O)N3CCOCC3)C2=O)s1`, the AC50 reads like this: under setting [2], 7.08 µM [rising, partial curve, poor fit]; under setting [1], 0.355 µM [rising, full curve].

Regarding `CCOC(=O)CCC(=O)Nc1ccc([N+](=O)[O-])cc1C`, the half-maximal activity concentration (AC50) under setting [2] was 2.82 µM [falling, full curve, poor fit].

Turning to `O=C(COC(=O)c1ccc(-c2ccc([N+](=O)[O-])cc2)o1)NC(=O)NC12CC3CC(CC(C3)C1)C2`, under setting [2], the AC50 is 14.1 µM [rising, single point].

Turning to `CCN1CCN(c2ncc3c(n2)CCN(Cc2sccc2C)C3)CC1`, the AC50 under setting [1] is 3.55 µM [rising, single point].

`O=C(Nc1nc(-c2ccc3c(c2)OCO3)cs1)C1COc2ccccc2O1` (stereo unspecified): the AC50 under setting [1] was 31.6 µM [rising, single point].

As for `COC(=O)c1ccc(NC(=O)CNc2ccccc2)cc1`, the AC50 under setting [1] was 0.316 µM [falling, full curve, poor fit].

`Clc1ccccc1CSc1nnc(-c2ccco2)c(-c2ccco2)n1`: under setting [1], the AC50 is 17.8 µM [falling, single point].

Regarding `CC1CCN(c2ccc(C(=O)Nc3ccc4c(c3)OCO4)cc2[N+](=O)[O-])CC1`, the AC50 is 35.5 µM [rising, single point] under setting [2] and 28.2 µM [rising, partial curve] under setting [1].

On to `COC(=O)c1ccc(/C=C/C(=O)c2cccc(OC)c2)cc1`, for which the AC50 under setting [2] is 22.4 µM [falling, single point] and the AC50 under setting [1] was 28.2 µM [falling, single point].

Turning to `Cc1ccc(/C=N\Nc2cn[nH]c(=O)c2Cl)cc1`, the half-maximal activity concentration (AC50) is 12.6 µM [falling, partial curve] under setting [2] and 11.2 µM [falling, partial curve] under setting [1].

With `O=C(Nc1ccc(Br)cc1)C1CCCN1S(=O)(=O)c1cccs1` (stereo unspecified), the AC50 under setting [1] was 22.4 µM [rising, single point].

On to `O=[N+]([O-])c1cc2oc3c(c2c(C=NCc2ccncc2)c1O)CCCC3`, for which, under setting [1], the AC50 is 35.5 µM [rising, single point].

As to `COc1cccc(CNC(=O)c2ccc3c(c2)N(C)C(=O)C2CCCCN32)c1` (stereo unspecified), the AC50 under setting [2] was 35.5 µM [falling, partial curve].

For `CCOc1ccc(-c2ncncc2-c2ccc(OC)cc2)c(O)c1`, the AC50 under setting [1] was 10 µM [rising, partial curve, poor fit].

`O=C(N/N=C1\CC2CC=CC12)c1ccc(COc2ccccc2)cc1` (stereo unspecified): the AC50 runs as follows: under setting [2], 0.00501 µM [falling, full curve, poor fit]; under setting [1], 0.0398 µM [falling, full curve, poor fit].

As to `CC1(C)Cc2ccccc2-c2nc3ccccc3c(=O)n21`, the AC50 is, setting by setting: under setting [2], 8.91 µM [rising, partial curve]; under setting [1], 11.2 µM [rising, partial curve].

As for `CCOc1ccc(-c2[nH]ncc2-c2ccc(OC)c(OC)c2)c(O)c1`, the half-maximal activity concentration (AC50) under setting [2] was 35.5 µM [rising, single point] and the AC50 under setting [1] is 11.2 µM [rising, partial curve].

Turning to `Cc1ccc(N(CC(=O)NCCSc2ccccn2)S(C)(=O)=O)cc1`, the AC50 is 1.26 µM [falling, single point] under setting [2] and 0.1 µM [falling, full curve] under setting [1].
